The values that follow come from publication PMC5840268.

By UniProt entry, the sequences of proteins in these tests, tags left out.
UniProt Q92547: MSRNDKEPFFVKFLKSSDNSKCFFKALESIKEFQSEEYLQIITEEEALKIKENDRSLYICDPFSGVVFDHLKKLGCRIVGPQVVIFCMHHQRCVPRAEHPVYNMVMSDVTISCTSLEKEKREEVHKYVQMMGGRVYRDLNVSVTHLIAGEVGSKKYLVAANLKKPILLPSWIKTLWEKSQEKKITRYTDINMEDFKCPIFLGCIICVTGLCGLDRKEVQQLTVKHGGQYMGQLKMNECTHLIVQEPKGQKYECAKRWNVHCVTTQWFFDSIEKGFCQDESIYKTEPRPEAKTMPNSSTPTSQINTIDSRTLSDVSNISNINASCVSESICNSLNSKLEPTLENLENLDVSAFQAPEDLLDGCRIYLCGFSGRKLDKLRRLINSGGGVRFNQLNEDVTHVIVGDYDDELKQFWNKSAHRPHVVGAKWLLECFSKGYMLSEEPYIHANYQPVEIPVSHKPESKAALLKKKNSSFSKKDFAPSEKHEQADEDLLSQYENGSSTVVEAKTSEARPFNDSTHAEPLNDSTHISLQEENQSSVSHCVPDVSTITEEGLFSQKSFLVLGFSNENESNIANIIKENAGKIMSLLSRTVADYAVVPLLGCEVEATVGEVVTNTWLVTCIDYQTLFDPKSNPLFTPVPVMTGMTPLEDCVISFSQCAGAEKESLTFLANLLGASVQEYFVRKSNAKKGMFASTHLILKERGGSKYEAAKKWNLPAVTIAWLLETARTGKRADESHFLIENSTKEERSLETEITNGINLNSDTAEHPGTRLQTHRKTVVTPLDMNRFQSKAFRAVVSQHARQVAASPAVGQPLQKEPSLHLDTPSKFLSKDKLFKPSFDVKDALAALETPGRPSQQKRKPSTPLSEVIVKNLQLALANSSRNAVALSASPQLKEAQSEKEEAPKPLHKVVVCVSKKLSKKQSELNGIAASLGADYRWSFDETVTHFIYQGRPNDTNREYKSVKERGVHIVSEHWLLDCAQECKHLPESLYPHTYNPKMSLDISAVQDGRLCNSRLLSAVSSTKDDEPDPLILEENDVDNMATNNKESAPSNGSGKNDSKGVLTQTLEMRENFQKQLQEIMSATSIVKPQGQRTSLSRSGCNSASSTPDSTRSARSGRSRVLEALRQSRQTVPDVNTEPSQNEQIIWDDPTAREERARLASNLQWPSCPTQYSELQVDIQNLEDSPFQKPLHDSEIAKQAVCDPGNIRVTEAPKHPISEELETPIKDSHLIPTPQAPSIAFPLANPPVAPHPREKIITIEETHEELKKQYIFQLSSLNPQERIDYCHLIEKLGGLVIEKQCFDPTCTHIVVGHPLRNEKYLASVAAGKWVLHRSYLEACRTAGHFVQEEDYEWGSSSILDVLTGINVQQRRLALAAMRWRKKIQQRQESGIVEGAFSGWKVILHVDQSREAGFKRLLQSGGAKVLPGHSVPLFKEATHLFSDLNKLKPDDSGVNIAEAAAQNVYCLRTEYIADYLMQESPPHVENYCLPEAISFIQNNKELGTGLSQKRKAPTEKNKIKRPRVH
UniProt P38398: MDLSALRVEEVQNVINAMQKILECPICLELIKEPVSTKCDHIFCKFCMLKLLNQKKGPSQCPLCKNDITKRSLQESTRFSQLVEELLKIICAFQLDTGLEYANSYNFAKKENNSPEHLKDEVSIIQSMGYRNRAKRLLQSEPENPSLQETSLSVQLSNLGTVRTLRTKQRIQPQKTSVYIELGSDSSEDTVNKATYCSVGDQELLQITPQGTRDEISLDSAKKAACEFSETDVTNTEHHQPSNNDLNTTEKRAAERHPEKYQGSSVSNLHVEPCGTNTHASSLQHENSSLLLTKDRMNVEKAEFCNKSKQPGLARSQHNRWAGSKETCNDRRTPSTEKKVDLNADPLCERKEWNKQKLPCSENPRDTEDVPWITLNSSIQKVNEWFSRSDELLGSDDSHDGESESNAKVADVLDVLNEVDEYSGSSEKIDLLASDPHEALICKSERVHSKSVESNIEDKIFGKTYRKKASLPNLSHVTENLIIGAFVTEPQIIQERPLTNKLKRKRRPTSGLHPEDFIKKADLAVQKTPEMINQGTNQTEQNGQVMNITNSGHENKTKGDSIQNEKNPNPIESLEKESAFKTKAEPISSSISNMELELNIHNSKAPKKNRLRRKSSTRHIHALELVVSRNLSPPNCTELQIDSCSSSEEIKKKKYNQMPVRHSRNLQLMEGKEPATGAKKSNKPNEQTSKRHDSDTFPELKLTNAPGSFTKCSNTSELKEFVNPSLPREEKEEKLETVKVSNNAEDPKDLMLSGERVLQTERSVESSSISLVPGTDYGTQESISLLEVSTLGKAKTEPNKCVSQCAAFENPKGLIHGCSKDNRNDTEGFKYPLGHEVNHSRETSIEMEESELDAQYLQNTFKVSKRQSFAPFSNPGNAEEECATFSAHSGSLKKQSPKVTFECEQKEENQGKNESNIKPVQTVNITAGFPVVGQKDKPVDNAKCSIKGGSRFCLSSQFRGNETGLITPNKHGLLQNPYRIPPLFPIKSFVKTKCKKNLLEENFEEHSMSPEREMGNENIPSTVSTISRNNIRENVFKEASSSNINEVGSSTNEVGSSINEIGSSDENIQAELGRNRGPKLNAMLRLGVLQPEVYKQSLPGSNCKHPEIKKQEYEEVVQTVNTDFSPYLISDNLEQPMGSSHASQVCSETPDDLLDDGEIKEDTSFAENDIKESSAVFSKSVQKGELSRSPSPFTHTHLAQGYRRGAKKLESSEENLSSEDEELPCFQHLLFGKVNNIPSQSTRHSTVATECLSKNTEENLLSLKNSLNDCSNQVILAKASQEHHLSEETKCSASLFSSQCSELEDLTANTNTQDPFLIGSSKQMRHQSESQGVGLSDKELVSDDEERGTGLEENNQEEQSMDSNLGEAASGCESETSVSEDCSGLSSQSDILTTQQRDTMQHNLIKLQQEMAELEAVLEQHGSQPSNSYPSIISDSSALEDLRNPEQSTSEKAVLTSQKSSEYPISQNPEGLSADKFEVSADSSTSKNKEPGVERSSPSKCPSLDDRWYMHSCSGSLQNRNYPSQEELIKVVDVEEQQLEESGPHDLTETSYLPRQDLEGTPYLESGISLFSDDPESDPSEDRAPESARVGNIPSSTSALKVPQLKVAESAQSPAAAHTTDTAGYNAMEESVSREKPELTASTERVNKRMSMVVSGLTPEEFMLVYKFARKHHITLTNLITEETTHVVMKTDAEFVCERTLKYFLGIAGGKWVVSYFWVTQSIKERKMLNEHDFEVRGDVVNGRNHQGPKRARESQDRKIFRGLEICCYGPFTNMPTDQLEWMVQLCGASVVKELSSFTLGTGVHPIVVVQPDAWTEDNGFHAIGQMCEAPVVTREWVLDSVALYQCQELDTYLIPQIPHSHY

Assay [1] deals with tagged exogenous TOPBP1 expressed in HeLa cells (UniProt Q92547). In words: co-IP; HeLa cells expressing both tagged EDC4 and tagged TOPBP1; one immunoprecipitated, immunoblotting with indicated antibodies. In general terms: Immunoblotting shows a protein as a band on a membrane.
Assay [2] concerns the target BRCA1, endogenous in HeLa cells (human (endogenous in HeLa)) (UniProt P38398). In words: co-IP; endogenous proteins from HeLa cells; lysis in NTEN buffer (NP-40 0.5%, Tris 20 mM pH 7.4, NaCl 150 mM, EDTA 1 mM, benzonase); specific antibody and Protein G magnetic beads overnight at 4 °C; western blot.

These are yes or no findings as the source states them, for the method shown. In cells and extracts the contact can be indirect. Some entries that bind do so weakly or less than the wild type. For some assays here: Where a sequence is shown, tags or fusion partners need not be part of it.

B1: tagged exogenous EDC4 expressed in HeLa cells (protein, UniProt Q6P2E9-1 1-1401)
chain: MASCASIDIEDATQHLRDILKLDRPAGGPSAESPRPSSAYNGDLNGLLVPDPLCSGDSTSANKTGLRTMPPINLQEKQVICLSGDDSSTCIGILAKEVEIVASSDSSISSKARGSNKVKIQPVAKYDWEQKYYYGNLIAVSNSFLAYAIRAANNGSAMVRVISVSTSERTLLKGFTGSVADLAFAHLNSPQLACLDEAGNLFVWRLALVNGKIQEEILVHIRQPEGTPLNHFRRIIWCPFIPEESEDCCEESSPTVALLHEDRAEVWDLDMLRSSHSTWPVDVSQIKQGFIVVKGHSTCLSEGALSPDGTVLATASHDGYVKFWQIYIEGQDEPRCLHEWKPHDGRPLSCLLFCDNHKKQDPDVPFWRFLITGADQNRELKMWCTVSWTCLQTIRFSPDIFSSVSVPPSLKVCLDLSAEYLILSDVQRKVLYVMELLQNQEEGHACFSSISEFLLTHPVLSFGIQVVSRCRLRHTEVLPAEEENDSLGADGTHGAGAMESAAGVLIKLFCVHTKALQDVQIRFQPQLNPDVVAPLPTHTAHEDFTFGESRPELGSEGLGSAAHGSQPDLRRIVELPAPADFLSLSSETKPKLMTPDAFMTPSASLQQITASPSSSSSGSSSSSSSSSSSLTAVSAMSSTSAVDPSLTRPPEELTLSPKLQLDGSLTMSSSGSLQASPRGLLPGLLPAPADKLTPKGPGQVPTATSALSLELQEVEPLGLPQASPSRTRSPDVISSASTALSQDIPEIASEALSRGFGSSAPEGLEPDSMASAASALHLLSPRPRPGPELGPQLGLDGGPGDGDRHNTPSLLEAALTQEASTPDSQVWPTAPDITRETCSTLAESPRNGLQEKHKSLAFHRPPYHLLQQRDSQDASAEQSDHDDEVASLASASGGFGTKVPAPRLPAKDWKTKGSPRTSPKLKRKSKKDDGDAAMGSRLTEHQVAEPPEDWPALIWQQQRELAELRHSQEELLQRLCTQLEGLQSTVTGHVERALETRHEQEQRRLERALAEGQQRGGQLQEQLTQQLSQALSSAVAGRLERSIRDEIKKTVPPCVSRSLEPMAGQLSNSVATKLTAVEGSMKENISKLLKSKNLTDAIARAAADTLQGPMQAAYREAFQSVVLPAFEKSCQAMFQQINDSFRLGTQEYLQQLESHMKSRKAREQEAREPVLAQLRGLVSTLQSATEQMAATVAGSVRAEVQHQLHVAVGSLQESILAQVQRIVKGEVSVALKEQQAAVTSSIMQAMRSAAGTPVPSAHLDCQAQQAHILQLLQQGHLNQAFQQALTAADLNLVLYVCETVDPAQVFGQPPCPLSQPVLLSLIQQLASDLGTRTDLKLSYLEEAVMHLDHSDPITRDHMGSVMAQVRQKLFQFLQAEPHNSLGKAARRLSLMLHGLVTPSLP
In the case of B1, the binding entry in assay [1] was “binds”.

B2: EDC4, endogenous in HeLa cells (protein, UniProt Q6P2E9-1 1-1401)
chain: B1 chain
For B2, the binding result in assay [2] is reported as “binds”.
